Data: publication PMC5216755
Results are given in words; binding and its absence hold for the method and conditions named. In cells and extracts the contact can be indirect. Here binding means that the protein was enriched with, or labelled near, the bait; the list need not be complete.

Amino acid sequences for entries named in this document (tags omitted).
UniProt Q9C0K0: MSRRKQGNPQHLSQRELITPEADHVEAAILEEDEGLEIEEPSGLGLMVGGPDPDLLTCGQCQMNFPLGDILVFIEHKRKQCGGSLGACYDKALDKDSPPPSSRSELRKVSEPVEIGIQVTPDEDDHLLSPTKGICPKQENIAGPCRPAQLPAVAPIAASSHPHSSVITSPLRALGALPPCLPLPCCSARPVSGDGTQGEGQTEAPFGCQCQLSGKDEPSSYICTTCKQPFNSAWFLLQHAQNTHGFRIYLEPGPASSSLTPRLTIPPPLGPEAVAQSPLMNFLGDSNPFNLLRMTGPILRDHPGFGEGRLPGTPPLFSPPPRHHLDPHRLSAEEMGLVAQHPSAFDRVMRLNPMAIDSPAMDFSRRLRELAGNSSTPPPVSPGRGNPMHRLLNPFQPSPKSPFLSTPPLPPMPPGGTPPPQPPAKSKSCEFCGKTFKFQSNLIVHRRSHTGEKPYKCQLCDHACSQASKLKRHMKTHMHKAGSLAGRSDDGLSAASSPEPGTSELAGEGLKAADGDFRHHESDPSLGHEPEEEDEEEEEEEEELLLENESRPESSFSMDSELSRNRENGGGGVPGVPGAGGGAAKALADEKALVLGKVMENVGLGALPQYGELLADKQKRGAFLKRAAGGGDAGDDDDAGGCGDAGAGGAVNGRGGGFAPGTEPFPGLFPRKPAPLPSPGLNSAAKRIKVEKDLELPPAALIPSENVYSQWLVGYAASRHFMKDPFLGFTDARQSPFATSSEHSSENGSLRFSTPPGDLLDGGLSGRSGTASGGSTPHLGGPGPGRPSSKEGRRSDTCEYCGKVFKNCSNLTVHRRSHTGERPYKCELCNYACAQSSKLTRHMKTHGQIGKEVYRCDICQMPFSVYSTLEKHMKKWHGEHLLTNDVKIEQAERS
UniProt O60884: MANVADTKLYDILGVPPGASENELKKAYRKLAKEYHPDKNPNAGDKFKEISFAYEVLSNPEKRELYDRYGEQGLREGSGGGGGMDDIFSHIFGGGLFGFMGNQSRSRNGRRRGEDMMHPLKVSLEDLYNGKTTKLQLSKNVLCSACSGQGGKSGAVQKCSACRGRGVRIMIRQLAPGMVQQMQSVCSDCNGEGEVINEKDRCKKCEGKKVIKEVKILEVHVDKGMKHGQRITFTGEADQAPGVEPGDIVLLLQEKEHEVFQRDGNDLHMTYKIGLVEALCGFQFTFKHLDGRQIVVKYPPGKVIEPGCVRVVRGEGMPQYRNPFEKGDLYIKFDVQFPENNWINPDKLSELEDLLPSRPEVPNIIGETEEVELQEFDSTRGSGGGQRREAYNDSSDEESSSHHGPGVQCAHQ
UniProt P35637: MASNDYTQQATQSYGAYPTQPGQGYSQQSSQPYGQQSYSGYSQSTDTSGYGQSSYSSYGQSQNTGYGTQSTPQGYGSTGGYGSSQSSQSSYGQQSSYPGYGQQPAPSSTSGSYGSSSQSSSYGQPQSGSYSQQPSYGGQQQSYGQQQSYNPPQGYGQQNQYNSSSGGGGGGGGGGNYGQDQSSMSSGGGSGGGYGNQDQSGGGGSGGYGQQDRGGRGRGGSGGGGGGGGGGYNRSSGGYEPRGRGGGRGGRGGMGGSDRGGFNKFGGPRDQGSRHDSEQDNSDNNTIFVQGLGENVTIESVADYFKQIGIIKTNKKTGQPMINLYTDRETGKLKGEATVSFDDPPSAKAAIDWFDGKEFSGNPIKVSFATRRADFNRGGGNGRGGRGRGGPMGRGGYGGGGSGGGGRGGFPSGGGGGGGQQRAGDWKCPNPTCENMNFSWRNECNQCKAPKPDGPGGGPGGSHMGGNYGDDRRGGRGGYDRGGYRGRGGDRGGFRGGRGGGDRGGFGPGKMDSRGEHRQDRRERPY
UniProt Q16666: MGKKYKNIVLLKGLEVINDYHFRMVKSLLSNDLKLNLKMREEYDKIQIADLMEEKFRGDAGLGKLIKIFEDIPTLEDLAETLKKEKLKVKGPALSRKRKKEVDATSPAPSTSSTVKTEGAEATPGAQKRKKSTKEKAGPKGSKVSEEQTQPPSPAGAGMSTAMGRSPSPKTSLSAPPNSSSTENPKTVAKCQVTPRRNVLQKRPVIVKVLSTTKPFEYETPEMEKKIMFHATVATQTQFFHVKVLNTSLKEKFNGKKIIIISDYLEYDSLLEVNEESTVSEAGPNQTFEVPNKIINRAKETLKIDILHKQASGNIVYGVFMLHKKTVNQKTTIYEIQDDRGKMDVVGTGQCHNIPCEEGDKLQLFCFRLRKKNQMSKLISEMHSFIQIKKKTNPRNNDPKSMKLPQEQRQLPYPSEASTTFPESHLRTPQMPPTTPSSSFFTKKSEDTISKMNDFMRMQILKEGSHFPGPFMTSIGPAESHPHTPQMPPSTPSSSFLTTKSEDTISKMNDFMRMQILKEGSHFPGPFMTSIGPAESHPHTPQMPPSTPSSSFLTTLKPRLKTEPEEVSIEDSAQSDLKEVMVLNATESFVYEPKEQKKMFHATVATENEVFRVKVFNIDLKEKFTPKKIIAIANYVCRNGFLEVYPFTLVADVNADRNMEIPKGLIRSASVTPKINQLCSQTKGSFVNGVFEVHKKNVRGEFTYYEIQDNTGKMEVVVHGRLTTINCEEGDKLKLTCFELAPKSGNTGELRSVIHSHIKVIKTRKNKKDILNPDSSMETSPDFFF
UniProt P52732: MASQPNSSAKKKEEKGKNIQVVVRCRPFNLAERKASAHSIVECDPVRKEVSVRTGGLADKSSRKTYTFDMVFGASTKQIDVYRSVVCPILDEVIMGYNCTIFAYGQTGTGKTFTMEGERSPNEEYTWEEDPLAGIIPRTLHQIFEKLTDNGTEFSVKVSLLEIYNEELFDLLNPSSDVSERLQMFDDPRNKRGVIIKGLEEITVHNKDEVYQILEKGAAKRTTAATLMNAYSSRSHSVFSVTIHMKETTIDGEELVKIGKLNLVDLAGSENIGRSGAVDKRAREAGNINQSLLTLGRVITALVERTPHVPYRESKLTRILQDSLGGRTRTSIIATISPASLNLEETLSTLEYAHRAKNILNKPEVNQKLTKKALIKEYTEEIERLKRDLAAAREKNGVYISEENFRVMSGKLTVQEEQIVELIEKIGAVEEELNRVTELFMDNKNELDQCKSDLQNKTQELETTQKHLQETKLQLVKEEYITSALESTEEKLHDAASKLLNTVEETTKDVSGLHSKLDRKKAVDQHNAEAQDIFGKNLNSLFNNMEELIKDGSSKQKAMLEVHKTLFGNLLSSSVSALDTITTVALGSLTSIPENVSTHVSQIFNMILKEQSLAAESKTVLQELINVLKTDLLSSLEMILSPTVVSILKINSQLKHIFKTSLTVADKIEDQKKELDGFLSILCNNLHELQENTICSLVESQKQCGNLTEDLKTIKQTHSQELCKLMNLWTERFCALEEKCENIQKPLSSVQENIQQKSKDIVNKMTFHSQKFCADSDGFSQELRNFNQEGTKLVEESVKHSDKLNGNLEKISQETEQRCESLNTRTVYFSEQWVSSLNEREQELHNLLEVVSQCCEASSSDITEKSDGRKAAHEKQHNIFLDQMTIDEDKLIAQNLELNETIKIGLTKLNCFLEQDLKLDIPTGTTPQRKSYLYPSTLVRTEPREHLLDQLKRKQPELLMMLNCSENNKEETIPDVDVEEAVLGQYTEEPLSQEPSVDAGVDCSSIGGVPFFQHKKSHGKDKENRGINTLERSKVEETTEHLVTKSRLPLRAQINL
UniProt Q9UKA8: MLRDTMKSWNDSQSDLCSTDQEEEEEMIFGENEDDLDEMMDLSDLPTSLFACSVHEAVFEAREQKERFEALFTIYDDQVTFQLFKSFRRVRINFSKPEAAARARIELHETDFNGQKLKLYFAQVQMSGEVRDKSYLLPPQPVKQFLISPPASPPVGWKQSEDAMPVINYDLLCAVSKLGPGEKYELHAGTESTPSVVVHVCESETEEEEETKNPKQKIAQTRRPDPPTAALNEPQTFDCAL
UniProt P15927: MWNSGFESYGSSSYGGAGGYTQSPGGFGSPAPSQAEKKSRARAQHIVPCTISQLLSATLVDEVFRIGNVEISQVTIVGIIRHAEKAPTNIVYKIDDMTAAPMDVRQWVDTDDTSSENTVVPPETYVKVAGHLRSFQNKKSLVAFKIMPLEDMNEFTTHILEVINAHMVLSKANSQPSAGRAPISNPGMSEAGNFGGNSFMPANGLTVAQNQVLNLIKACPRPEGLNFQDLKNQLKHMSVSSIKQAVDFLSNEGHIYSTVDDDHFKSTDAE
UniProt Q15208: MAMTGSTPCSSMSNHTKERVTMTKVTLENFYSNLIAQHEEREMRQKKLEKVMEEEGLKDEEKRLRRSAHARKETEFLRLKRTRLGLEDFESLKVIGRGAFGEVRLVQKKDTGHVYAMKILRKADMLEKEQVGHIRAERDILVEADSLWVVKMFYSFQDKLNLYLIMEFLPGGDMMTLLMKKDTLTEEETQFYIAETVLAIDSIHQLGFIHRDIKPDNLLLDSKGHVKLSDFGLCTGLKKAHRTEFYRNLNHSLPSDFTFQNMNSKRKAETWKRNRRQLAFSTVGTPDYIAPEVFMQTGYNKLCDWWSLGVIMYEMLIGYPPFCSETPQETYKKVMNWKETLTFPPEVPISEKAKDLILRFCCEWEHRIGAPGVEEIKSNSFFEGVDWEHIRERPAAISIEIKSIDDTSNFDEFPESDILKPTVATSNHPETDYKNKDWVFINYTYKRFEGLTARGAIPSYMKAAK

B1: Rb (endogenous, Jurkat) (protein, UniProt P06400 1-928)
chain: MPPKTPRKTAATAAAAAAEPPAPPPPPPPEEDPEQDSGPEDLPLVRLEFEETEEPDFTALCQKLKIPDHVRERAWLTWEKVSSVDGVLGGYIQKKKELWGICIFIAAVDLDEMSFTFTELQKNIEISVHKFFNLLKEIDTSTKVDNAMSRLLKKYDVLFALFSKLERTCELIYLTQPSSSISTEINSALVLKVSWITFLLAKGEVLQMEDDLVISFQLMLCVLDYFIKLSPPMLLKEPYKTAVIPINGSPRTPRRGQNRSARIAKQLENDTRIIEVLCKEHECNIDEVKNVYFKNFIPFMNSLGLVTSNGLPEVENLSKRYEEIYLKNKDLDARLFLDHDKTLQTDSIDSFETQRTPRKSNLDEEVNVIPPHTPVRTVMNTIQQLMMILNSASDQPSENLISYFNNCTVNPKESILKRVKDIGYIFKEKFAKAVGQGCVEIGSQRYKLGVRLYYRVMESMLKSEEERLSIQNFSKLLNDNIFHMSLLACALEVVMATYSRSTSQNLDSGTDLSFPWILNVLNLKAFDFYKVIESFIKAEGNLTREMIKHLERCEHRIMESLAWLSDSPLFDLIKQSKDREGPTDHLESACPLNLPLQNNHTAADMYLSPVRSPKKKGSTTRVNSTANAETQATSAFQTQKPLKSTSLSLFYKKVYRLAYLRLNTLCERLLSEHPELEHIIWTLFQHTLQNEYELMRDRHLDQIMMCSMYGICKVKNIDLKFKIIVTAYKDLPHAVQETFKRVLIKEEEYDSIIVFYNSVFMQRLKTNILQYASTRPPTLSPIPHIPRSPYKFPSSPLRIPGGNIYISPLKSPYKISEGLPTPTKMTPRSRILVSIGESFGTSEKFQKINQMVCNSDRVLKRSAEGSNPPKPLKKLRFDIEGSDEADGSKHLPGESKFQQKLAEMTSTRTRMQKQKMNDSMDTSNKEEK
B2: PRDX1 (endogenous, Jurkat) (protein, UniProt Q06830 1-199)
chain: MSSGNAKIGHPAPNFKATAVMPDGQFKDISLSDYKGKYVVFFFYPLDFTFVCPTEIIAFSDRAEEFKKLNCQVIGASVDSHFCHLAWVNTPKKQGGLGPMNIPLVSDPKRTIAQDYGVLKADEGISFRGLFIIDDKGILRQITVNDLPVGRSVDETLRLVQAFQFTDKHGEVCPAGWKPGSDTIKPDVQKSKEYFSKQK
B3: KHSRP (endogenous, Jurkat) (protein, UniProt Q92945 1-711)
chain: MSDYSTGGPPPGPPPPAGGGGGAGGAGGGPPPGPPGAGDRGGGGPGGGGPGGGSAGGPSQPPGGGGPGIRKDAFADAVQRARQIAAKIGGDAATTVNNSTPDFGFGGQKRQLEDGDQPESKKLASQGDSISSQLGPIHPPPRTSMTEEYRVPDGMVGLIIGRGGEQINKIQQDSGCKVQISPDSGGLPERSVSLTGAPESVQKAKMMLDDIVSRGRGGPPGQFHDNANGGQNGTVQEIMIPAGKAGLVIGKGGETIKQLQERAGVKMILIQDGSQNTNVDKPLRIIGDPYKVQQACEMVMDILRERDQGGFGDRNEYGSRIGGGIDVPVPRHSVGVVIGRSGEMIKKIQNDAGVRIQFKQDDGTGPEKIAHIMGPPDRCEHAARIINDLLQSLRSGPPGPPGGPGMPPGGRGRGRGQGNWGPPGGEMTFSIPTHKCGLVIGRGGENVKAINQQTGAFVEISRQLPPNGDPNFKLFIIRGSPQQIDHAKQLIEEKIEGPLCPVGPGPGGPGPAGPMGPFNPGPFNQGPPGAPPHAGGPPPHQYPPQGWGNTYPQWQPPAPHDPSKAAAAAADPNAAWAAYYSHYYQQPPGPVPGPAPAPAAPPAQGEPPQPPPTGQSDYTKAWEEYYKKIGQQPQQPGAPPQQDYTKAWEEYYKKQAQVATGGGPGAPPGSQPDYSAAWAEYYRQQAAYYGQTPGPGGPQPPPTQQGQQQAQ

target: FLAG/HA epitope-tagged PPP3CA constitutively active mutant (F/H-PPP3CA*), stably expressed in Jurkat cells (human) (UniProt Q08209); test: affinity purification with mass spectrometry; tandem affinity purification of F/H-PPP3CA* from Jurkat whole cell extracts (anti-FLAG M2 agarose, FLAG peptide elution, then anti-HA beads, HA peptide elution); lysis in 50 mM Tris-HCl pH 7.9, 150 mM NaCl, 1 mM EDTA, 0.1% NP-40; 4°C; hits with at least three unique peptides and absent from the control IP

binding, binds:
BCL11b (endogenous, Jurkat) (from UniProt Q9C0K0 1-894)
CABIN1 (endogenous, Jurkat) (from UniProt Q9Y6J0 1-2220)
DNAJA2 (endogenous, Jurkat) (from UniProt O60884 1-412)
FLNA (endogenous, Jurkat) (from UniProt P21333 1-2647)
FUS (endogenous, Jurkat) (from UniProt P35637 1-526)
HSPA8 (endogenous, Jurkat) (from UniProt P11142 1-646)
IFI16 (endogenous, Jurkat) (from UniProt Q16666 1-785)
IQGAP1 (endogenous, Jurkat) (from UniProt P46940 1-1657)
KIF11 (endogenous, Jurkat) (from UniProt P52732 1-1056)
NPM1 (endogenous, Jurkat) (from UniProt P06748 1-294)
PKM2 (endogenous, Jurkat) (from UniProt P14618 1-531)
PPP3CB (endogenous, Jurkat) (from UniProt P16298 1-524)
PRMT5 (endogenous, Jurkat) (from UniProt O14744 1-637)
RBBP4 (endogenous, Jurkat) (from UniProt Q09028 1-425)
RCAN3 (endogenous, Jurkat) (from UniProt Q9UKA8 1-241)
RPA2 (endogenous, Jurkat) (from UniProt P15927 1-270)
STK38 (endogenous, Jurkat) (from UniProt Q15208 1-465)

target: FLAG/HA epitope-tagged PPP3CA constitutively active mutant (F/H-PPP3CA*), stably expressed in Jurkat cells (human) (UniProt Q08209); test: as above; remark: another data set of the same source

binding, binds:
B1
B2
B3
